Measured values: PubChem BioAssay AID588590 (National Center for Advancing Translational Sciences (NCATS), 2011)
About 4,000 (1%) of roughly 390,000 compounds were called active. The shares of active, inactive and inconclusive entries below differ from those in the screen. The call rests on the fitted dose curve; in most records, active means well fitted inhibition curve with a large enough effect; inconclusive means small, poorly fitted or top-dose-only effect, or another doubt; inactive means no such curve, though single readings can be large or run the other way. Potencies of inconclusive entries are doubtful fits and often do not repeat.

Protein sequences, listed by entry. Tags and fused reporters are not part of them. Lines headed by an entry give the natural chain unless they say otherwise; changes in a name come on top.
UniProt Q9UNA4: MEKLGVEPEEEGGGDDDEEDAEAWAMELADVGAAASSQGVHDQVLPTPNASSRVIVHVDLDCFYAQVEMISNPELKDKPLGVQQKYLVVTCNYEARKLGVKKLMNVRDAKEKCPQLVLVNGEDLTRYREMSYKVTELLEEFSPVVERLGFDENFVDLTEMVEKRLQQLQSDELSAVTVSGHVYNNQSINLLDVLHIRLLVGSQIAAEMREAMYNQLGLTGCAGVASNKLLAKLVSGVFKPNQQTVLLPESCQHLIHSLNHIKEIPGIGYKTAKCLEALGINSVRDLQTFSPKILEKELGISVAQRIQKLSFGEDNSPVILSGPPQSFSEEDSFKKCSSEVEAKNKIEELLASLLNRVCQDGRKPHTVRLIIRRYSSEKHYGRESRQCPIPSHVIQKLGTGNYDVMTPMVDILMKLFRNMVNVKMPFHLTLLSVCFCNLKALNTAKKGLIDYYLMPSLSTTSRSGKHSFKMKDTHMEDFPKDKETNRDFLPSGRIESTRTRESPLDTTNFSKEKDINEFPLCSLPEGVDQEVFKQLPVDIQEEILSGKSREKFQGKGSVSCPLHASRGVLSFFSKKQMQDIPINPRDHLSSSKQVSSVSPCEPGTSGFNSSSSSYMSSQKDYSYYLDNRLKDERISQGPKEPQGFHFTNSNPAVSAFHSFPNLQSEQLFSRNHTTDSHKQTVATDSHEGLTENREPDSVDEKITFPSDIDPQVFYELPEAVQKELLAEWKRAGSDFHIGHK

target: DNA polymerase iota (Homo sapiens) (UniProt Q9UNA4); assay: qHTS for Inhibitors of Polymerase Iota; conditions: Pol iota fluorescent replication assay, 10 min; series mostly up to 115 µM; activity, negative = inhibition: at the top concentration
Summary of the method: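 Fluorescent replication assay read twice, at 0 min and 10 min after adding 50 nM (final) substrate. Enzyme (10 nM) and compounds were first incubated 15 min at room temperature; enzyme-free buffer wells were negative controls.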
Potency means the concentration at half of the fitted maximal effect.

For `N#Cc1cc(C(=O)c2cc(Br)ccc2O)cn(C2CCCCC2)c1=O`, which Potency is on record?
The Potency was inconclusive: 14.1 µM [inhibitor, full curve, poor fit].

For `Cc1cc(N2CCCC2)ccc1/C=N/n1cnnc1`, which Potency is on record?
Its Potency is inconclusive: 70.8 µM [inhibitor, partial curve].

How did the Potency turn out when `CC(/C=C/c1ccco1)=N/NC(=O)C1COc2ccccc2O1` (configuration not stated) was run?
The Potency was inconclusive: 10 µM [inhibitor, partial curve, poor fit].

How did the Potency turn out when `COc1ccc(C(=O)n2cc(C(C)=O)c3ccccc32)cc1` was run?
The Potency was inconclusive: 63.1 µM [inhibitor, single point].

Which Potency does the source give for `Cc1ccc(F)cc1NC(=O)N1c2ccccc2NC(=O)CC1C` (configuration not stated) here?
The Potency was inconclusive: 2.24 µM [inhibitor, partial curve, poor fit].

`CC1CCCCC1NC(=O)/C(C#N)=C/C=C/c1ccccc1[N+](=O)[O-]` (configuration not stated) was tested. Which Potency did it give?
The Potency was inconclusive: 15.8 µM [inhibitor, partial curve, poor fit].

Which Potency does the source give for `CC1=C(O)C(=O)OC1c1c(Cl)cccc1Cl` (configuration not stated) here?
The Potency was inconclusive: 79.4 µM [inhibitor, single point].

How did the Potency turn out when `c1ccc(NNC2=NCCCCC2)cc1` was run?
The Potency was inconclusive: 44.7 µM [inhibitor, partial curve, poor fit].

Which “activity, negative = inhibition” value does the source give for `COc1ccc(CCNC(=O)CN(c2ccccc2)S(=O)(=O)N(C)C)cc1OC` here?
The value was inactive: 1.63%.

Which Potency does the source give for `NS(=O)(=O)c1ccc(-n2nncc2-c2ccco2)cc1` here?
The Potency was inconclusive: 50.1 µM [inhibitor, partial curve, poor fit].

`Cc1ccc(OCCCC(=O)Nc2ccc3c(c2)OCCO3)cc1` was tested. Which Potency did it give?
Its Potency is inconclusive: 2.82 µM [inhibitor, full curve, poor fit].

For `COc1cc(C(c2c(C)[nH][nH]c2=O)c2c(C)[nH][nH]c2=O)ccc1OC(=O)c1ccccc1OC`, which Potency is on record?
The Potency was inconclusive: 15.8 µM [inhibitor, partial curve, poor fit].

How did the Potency turn out when `CC1=NOC(=O)/C1=C/c1ccc(O)c(Br)c1` was run?
Its Potency is inconclusive: 39.8 µM [inhibitor, single point].

Which Potency does the source give for `CCCCC(=O)Nc1ccc(Br)cc1C(=O)O` here?
Its Potency is inconclusive: 15.8 µM [inhibitor, full curve, poor fit].

For `CC(NC(=S)NCCCN1CCOCC1)C12CC3CC(CC(C3)C1)C2` (configuration not stated), which Potency is on record?
The Potency was inconclusive: 89.1 µM [inhibitor, partial curve].

`O=C(CN1C(=O)CCSc2ccc(S(=O)(=O)N3CCCC3)cc21)Nc1cccc(F)c1` was tested. Which Potency did it give?
Its Potency is inconclusive: 89.1 µM [inhibitor, single point].

Which Potency does the source give for `Cc1ccc(-c2cc(-c3ccccc3Cl)c(C#N)c(N)n2)o1` here?
Its Potency is inconclusive: 2.82 µM [inhibitor, partial curve, poor fit].

`Clc1ccccc1OCc1nnc(-c2ccccc2Br)o1` was tested. Which “activity, negative = inhibition” value did it give?
Its value is inactive: -1.15%.

How did the “activity, negative = inhibition” value turn out when `COc1cc(C2SCC(=O)N2Cc2ccccc2)ccc1O` (configuration not stated) was run?
The value was inactive: -17.2%.

How did the Potency turn out when `CN1/C(=C/c2cccc[n+]2C)Sc2ccccc21` was run?
Its Potency is inconclusive: 50.1 µM [inhibitor, partial curve, poor fit].

With `O=C(NC1CCCC1)C(c1ccncc1)N(C(=O)c1csnn1)c1ccccc1F` (configuration not stated) as the compound, how does the “activity, negative = inhibition” value read?
Its value is inactive: 52.8%.

Which “activity, negative = inhibition” value does the source give for `COc1ccc(CC(CN)c2ccccc2)cc1` (configuration not stated) here?
The value was inactive: 23.1%.

With `Cc1sc2ncnc(N3CCC(C(=O)N4CC(C)SC4=Nc4ccc(Cl)cc4)CC3)c2c1C` (configuration not stated) as the compound, how does the “activity, negative = inhibition” value read?
The value was inactive: -8.79%.

Which Potency does the source give for `NC(=O)c1c(NC(=O)CSc2nc(N)cc(=O)[nH]2)sc2c1CCCC2` here?
The Potency was inconclusive: 35.5 µM [inhibitor, partial curve, poor fit].

With `Cc1nn(CC(=O)N(C)Cc2ccc(F)cc2)c(C)c1[N+](=O)[O-]` as the compound, how does the “activity, negative = inhibition” value read?
The value was inactive: 11%.

`COc1ccc(NC(=O)CN(C)S(=O)(=O)c2ccc3c(c2)n(C)c(=O)c(=O)n3C)cc1` was tested. Which “activity, negative = inhibition” value did it give?
Its value is inactive: 10.3%.

`Cc1ccc(-c2onc(C)c2C)cc1S(=O)(=O)Nc1ccccn1` was tested. Which “activity, negative = inhibition” value did it give?
The value was inactive: 4.7%.

With `CCSc1nc2ccccc2c(OCc2ccc(Cl)cc2)c1C(=O)OC` as the compound, how does the Potency read?
Its Potency is inconclusive: 89.1 µM [inhibitor, single point].

How did the Potency turn out when `O=C(Nc1cc(SCC(O)CO)cc([N+](=O)[O-])c1)c1ccc(-n2cnnn2)cc1` (configuration not stated) was run?
The Potency was inconclusive: 14.1 µM [inhibitor, single point].

`COc1ccc(OC)c(S(=O)(=O)Nc2ccccc2C)c1` was tested. Which “activity, negative = inhibition” value did it give?
The value was inactive: 3.4%.

For `Cc1ccc(CN2C(=O)C(CC(C)C)Nc3ncnc(N4CCN(c5ccccn5)CC4)c32)cc1` (configuration not stated), which Potency is on record?
The Potency was inconclusive: 17.8 µM [inhibitor, partial curve, poor fit].

For `CCOc1ccc(-c2nonc2NC(=O)c2oc3ccc(CC)cc3c2C)cc1`, which “activity, negative = inhibition” value is on record?
The value was inactive: -15%.

How did the “activity, negative = inhibition” value turn out when `COc1ccc(Cl)cc1NC(=O)c1cnc2sc(N3CCOCC3)nn2c1=O` was run?
Its value is inactive: -0.386%.

`COc1ccc2[nH]c3nc(SCC(=O)Nc4cccc(NC(C)=O)c4)nnc3c2c1` was tested. Which Potency did it give?
The Potency was inconclusive: 50.1 µM [inhibitor, partial curve].

`Cc1ccc2oc(-c3ccc(Cl)c(NC(=O)c4cc5ccccc5o4)c3)nc2c1` was tested. Which Potency did it give?
Its Potency is inconclusive: 2.51 µM [inhibitor, full curve, poor fit].

`O=C(Nc1nc2ccccc2s1)c1cc(-c2ccco2)nc2ccccc12` was tested. Which Potency did it give?
The Potency was inconclusive: 17.8 µM [inhibitor, full curve, poor fit].

`O=C1/C(=C/c2ccccn2)SC(=S)N1Nc1ncc(C(F)(F)F)cc1Cl` was tested. Which Potency did it give?
Its Potency is inconclusive: 25.1 µM [inhibitor, partial curve].

How did the Potency turn out when `Cc1cccc(C)c1NC(=O)CSc1nnc(-c2ccco2)c(-c2ccco2)n1` was run?
Its Potency is inconclusive: 2.82 µM [inhibitor, full curve, poor fit].

Which “activity, negative = inhibition” value does the source give for `C=C1C=C(C(F)F)n2ncc(C(=O)NCc3ccccc3)c2N1` here?
Its value is inactive: 18.6%.

`CCCCn1c(N)c(N(C)C(=O)c2ccccc2Oc2ccccc2)c(=O)[nH]c1=O` was tested. Which Potency did it give?
The Potency was inconclusive: 63.1 µM [inhibitor, single point].

`O=C(c1ccccc1)N1N=C(c2ccc(F)cc2)CC1(O)C(F)(F)F` (configuration not stated) was tested. Which Potency did it give?
The Potency was inconclusive: 20 µM [inhibitor, partial curve, poor fit].

With `COc1ccc(OC)c(NC2c3ncccc3C(=O)N2Cc2ccco2)c1` (configuration not stated) as the compound, how does the Potency read?
Its Potency is inconclusive: 25.1 µM [inhibitor, single point].

Which Potency does the source give for `COc1ccc(C2CC(c3c(Cl)cccc3Cl)n3nc(N)nc3N2)cc1` (configuration not stated) here?
Its Potency is inconclusive: 0.708 µM [inhibitor, full curve, poor fit].

Which “activity, negative = inhibition” value does the source give for `COc1cc(-c2[nH]nc3c2C(c2ccco2)C(C#N)=C(N)O3)cc(OC)c1OC` (configuration not stated) here?
Its value is inactive: -22.9%.

Which “activity, negative = inhibition” value does the source give for `CC(=O)N1c2ccc(S(=O)(=O)NCC3CCC(C(=O)NCc4ccc(C)o4)CC3)cc2CC1C` (configuration not stated) here?
Its value is inactive: 29.4%.

How did the Potency turn out when `O=C(O)c1cnc(-c2ccccc2)nc1Sc1ccc(Cl)cc1Cl` was run?
Its Potency is inconclusive: 39.8 µM [inhibitor, single point].

With `Cc1ccc2oc(C(=O)Nc3ccc(S(=O)(=O)Nc4nccc(C)n4)cc3)cc(=O)c2c1` as the compound, how does the “activity, negative = inhibition” value read?
Its value is inactive: -4.22%.

Which Potency does the source give for `COc1ccc(Br)cc1CNC(=O)CN1C(=O)c2cccnc2Oc2ccc(C)cc21` here?
Its Potency is inconclusive: 89.1 µM [inhibitor, partial curve, poor fit].

For `CCn1c(=O)c(C(=O)NCCN2CCCCC2)c(O)c2ccccc21`, which Potency is on record?
The Potency was inconclusive: 89.1 µM [inhibitor, partial curve].

Which Potency does the source give for `CCOC(=O)Nc1ccc2c(COC(=O)CN(C)S(=O)(=O)c3ccc(C)cc3)cc(=O)oc2c1` here?
Its Potency is inconclusive: 15.8 µM [inhibitor, full curve, poor fit].

Which “activity, negative = inhibition” value does the source give for `O=C(O)CSc1ncnc2sc(-c3ccccc3)cc12` here?
The value was inactive: 68%.

Which Potency does the source give for `CSc1nc(O)c(N=Nc2ccc(F)cc2F)c(=O)[nH]1` here?
The Potency was inconclusive: 39.8 µM [inhibitor, single point].

`O=C(Nc1ccc([N+](=O)[O-])cc1)Nc1ccc(Cl)cc1F` was tested. Which “activity, negative = inhibition” value did it give?
The value was inactive: -4.57%.

`COc1ccc(CC(=O)Nc2cc(C)c3c(=O)oc4ccccc4c3n2)cc1` was tested. Which Potency did it give?
The Potency was inconclusive: 39.8 µM [inhibitor, partial curve, poor fit].

Which Potency does the source give for `COc1cccc(CNc2ccc(F)c(Cl)c2)c1` here?
Its Potency is inconclusive: 44.7 µM [inhibitor, partial curve].

Which Potency does the source give for `O=c1cc(Nc2ccc3c(c2)OCCO3)[nH]c(=O)n1-c1ccc(Br)cc1` here?
Its Potency is inconclusive: 89.1 µM [inhibitor, single point].

For `Cc1cc(C)c(NC(=O)CSc2nnnn2-c2cccnc2)c(C)c1`, which “activity, negative = inhibition” value is on record?
The value was inactive: 11.2%.

Which Potency does the source give for `CCOC(=O)N1CCN(c2c(Nc3cc(C)[nH]n3)c(=O)c2=O)CC1` here?
Its Potency is inconclusive: 35.5 µM [inhibitor, partial curve, poor fit].

How did the “activity, negative = inhibition” value turn out when `O=C1c2[nH]nc(-c3ccc(F)cc3)c2C(c2ccccc2F)N1c1ccccc1` (configuration not stated) was run?
The value was inactive: 11.8%.

`CSc1ncc2c(n1)-c1ccccc1N(Cc1ccccc1)S2(=O)=O` was tested. Which “activity, negative = inhibition” value did it give?
Its value is inactive: 15.8%.

With `Cc1ccc2nc(-c3ccc(NC(=O)COc4ccc(Br)cc4Br)cc3)sc2c1` as the compound, how does the Potency read?
Its Potency is inconclusive: 100 µM [inhibitor, single point].

With `O=C(CCCN1C(=O)/C(=C\c2cccs2)SC1=S)Nc1cc([N+](=O)[O-])ccc1O` as the compound, how does the Potency read?
Its Potency is inconclusive: 89.1 µM [inhibitor, partial curve, poor fit].

For `COc1cc(NS(=O)(=O)c2ccc(NC(=O)c3ccc(Cl)cc3Cl)cc2)nc(OC)n1`, which Potency is on record?
Its Potency is inconclusive: 89.1 µM [inhibitor, partial curve, poor fit].

`O=S(=O)(N/N=C/c1cccnc1)c1ccc(Cl)c(Cl)c1` was tested. Which Potency did it give?
Its Potency is inconclusive: 31.6 µM [inhibitor, partial curve].

For `COc1ccc(CN2C(=O)C(CC(C)C)Nc3ncnc(N4CCCCC4)c32)cc1` (configuration not stated), which Potency is on record?
The Potency was inconclusive: 31.6 µM [inhibitor, single point].

With `COC(=O)c1ccc(/C=C/C(=O)c2ccc(OC)c(OC)c2)cc1` as the compound, how does the Potency read?
The Potency was inconclusive: 31.6 µM [inhibitor, partial curve, poor fit].

With `O=C(C1CCC1)N1CCc2cc(S(=O)(=O)NC3CCCc4ccccc43)ccc21` (configuration not stated) as the compound, how does the “activity, negative = inhibition” value read?
The value was inactive: 17.5%.
